Laboratory results published in PMC11186357.
Results are given in words; binding and its absence hold for the method and conditions named. In cells and extracts the contact can be indirect. Some entries that bind do so weakly or less than the wild type. For part of these data: Sequences can lack the tags named with a protein.

Amino acid sequences for entries named in this document (tags omitted). Residues count along the entry.
UniProt O75581, residues 20-1613: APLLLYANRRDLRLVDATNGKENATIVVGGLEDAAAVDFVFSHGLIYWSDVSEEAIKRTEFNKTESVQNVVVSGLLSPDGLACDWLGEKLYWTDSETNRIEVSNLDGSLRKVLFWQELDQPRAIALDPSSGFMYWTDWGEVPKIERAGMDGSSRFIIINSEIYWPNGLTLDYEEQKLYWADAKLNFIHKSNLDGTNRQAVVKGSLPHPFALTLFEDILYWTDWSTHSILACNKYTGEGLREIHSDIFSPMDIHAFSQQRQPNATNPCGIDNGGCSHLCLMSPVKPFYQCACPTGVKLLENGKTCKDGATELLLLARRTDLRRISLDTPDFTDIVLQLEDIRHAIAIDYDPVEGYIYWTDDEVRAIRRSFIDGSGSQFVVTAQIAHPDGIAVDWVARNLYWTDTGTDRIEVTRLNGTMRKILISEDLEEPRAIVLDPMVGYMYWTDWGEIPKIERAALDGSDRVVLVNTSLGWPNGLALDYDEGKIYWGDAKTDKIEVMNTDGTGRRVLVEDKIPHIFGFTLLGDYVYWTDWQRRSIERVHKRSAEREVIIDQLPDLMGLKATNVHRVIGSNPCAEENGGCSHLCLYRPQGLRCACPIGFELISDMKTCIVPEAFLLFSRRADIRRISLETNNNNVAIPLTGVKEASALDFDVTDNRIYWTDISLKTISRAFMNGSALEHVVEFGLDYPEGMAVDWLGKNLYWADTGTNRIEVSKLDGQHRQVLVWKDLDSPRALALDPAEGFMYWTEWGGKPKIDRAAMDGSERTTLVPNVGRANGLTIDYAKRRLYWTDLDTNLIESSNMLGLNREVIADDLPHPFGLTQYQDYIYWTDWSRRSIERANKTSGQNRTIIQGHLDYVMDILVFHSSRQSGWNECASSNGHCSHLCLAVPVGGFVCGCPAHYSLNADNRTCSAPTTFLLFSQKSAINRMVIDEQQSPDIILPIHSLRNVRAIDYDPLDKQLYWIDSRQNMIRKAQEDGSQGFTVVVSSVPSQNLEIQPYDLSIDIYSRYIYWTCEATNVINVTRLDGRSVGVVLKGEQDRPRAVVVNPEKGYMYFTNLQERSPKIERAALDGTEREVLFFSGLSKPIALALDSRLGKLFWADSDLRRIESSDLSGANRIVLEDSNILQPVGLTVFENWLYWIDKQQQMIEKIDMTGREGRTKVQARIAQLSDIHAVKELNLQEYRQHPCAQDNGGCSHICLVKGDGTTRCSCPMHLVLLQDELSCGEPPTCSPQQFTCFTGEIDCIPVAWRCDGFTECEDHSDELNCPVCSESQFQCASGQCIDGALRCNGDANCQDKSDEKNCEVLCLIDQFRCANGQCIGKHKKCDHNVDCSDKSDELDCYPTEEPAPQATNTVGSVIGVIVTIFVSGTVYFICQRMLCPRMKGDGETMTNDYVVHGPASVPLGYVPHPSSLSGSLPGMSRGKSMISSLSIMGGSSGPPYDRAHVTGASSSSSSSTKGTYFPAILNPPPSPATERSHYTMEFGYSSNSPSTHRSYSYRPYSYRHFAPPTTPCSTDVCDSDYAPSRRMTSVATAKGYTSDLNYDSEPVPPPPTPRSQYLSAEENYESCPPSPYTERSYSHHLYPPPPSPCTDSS
UniProt Q07065: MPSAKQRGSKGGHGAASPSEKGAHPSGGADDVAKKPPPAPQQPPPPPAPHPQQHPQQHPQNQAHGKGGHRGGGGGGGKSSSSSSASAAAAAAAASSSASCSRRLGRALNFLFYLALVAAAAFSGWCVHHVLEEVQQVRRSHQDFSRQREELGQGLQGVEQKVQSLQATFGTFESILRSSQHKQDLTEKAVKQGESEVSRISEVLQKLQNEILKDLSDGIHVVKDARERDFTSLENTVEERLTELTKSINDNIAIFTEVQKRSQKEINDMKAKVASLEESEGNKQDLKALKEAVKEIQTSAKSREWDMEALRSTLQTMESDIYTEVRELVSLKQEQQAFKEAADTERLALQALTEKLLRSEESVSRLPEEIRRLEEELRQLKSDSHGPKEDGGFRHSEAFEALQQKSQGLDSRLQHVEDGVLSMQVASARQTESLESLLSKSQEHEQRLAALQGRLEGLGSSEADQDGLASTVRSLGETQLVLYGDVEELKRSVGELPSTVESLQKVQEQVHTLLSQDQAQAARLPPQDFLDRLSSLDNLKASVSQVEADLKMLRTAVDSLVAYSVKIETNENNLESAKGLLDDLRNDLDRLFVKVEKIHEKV

What was measured:
[1] = biological target: Low density lipoprotein receptor related protein 6 (human (endogenous in HASMCs)) (UniProt O75581); experiment: co-IP; endogenous proteins in SMCs under stimulation with rDKK1
[2] = biological target: T1, scavenger receptor-A (human (endogenous in HASMCs)) (UniProt P21757); experiment: co-IP; endogenous proteins in HASMCs; also after rDKK1 incubation or co-culture with Lenti-GFP-DKK1 HAECs (interaction said to be enhanced)
T1 sequence: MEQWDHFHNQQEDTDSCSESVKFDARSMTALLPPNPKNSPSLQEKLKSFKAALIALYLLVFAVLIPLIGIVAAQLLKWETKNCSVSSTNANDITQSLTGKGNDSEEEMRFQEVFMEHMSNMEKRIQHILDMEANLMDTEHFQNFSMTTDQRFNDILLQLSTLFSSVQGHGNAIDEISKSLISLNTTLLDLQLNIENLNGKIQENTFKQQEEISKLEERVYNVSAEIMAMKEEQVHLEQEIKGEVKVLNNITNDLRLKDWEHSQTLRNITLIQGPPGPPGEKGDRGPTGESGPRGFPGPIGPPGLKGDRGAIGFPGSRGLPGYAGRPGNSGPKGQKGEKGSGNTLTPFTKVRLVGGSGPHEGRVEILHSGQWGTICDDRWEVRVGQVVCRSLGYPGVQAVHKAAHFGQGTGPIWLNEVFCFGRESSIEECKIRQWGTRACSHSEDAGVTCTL

Myc-tagged SR-A = biological target: T2, Myc-tagged SR-A (UniProt P21757); experiment: co-IP; HEK293T cells co-transfected with Myc-tagged SR-A and Flag-tagged USP53 plasmids
T2 sequence: T1 sequence

Question: How did the binding [1] turn out when “Cytoskeleton associated protein 4 (from UniProt Q07065 1-602) (receptor)” was run?
Answer: binds

B1: Ubiquitin-specific Protease 53 (enzyme, UniProt Q70EK8 1-1073)
chain: MAWVKFLRKPGGNLGKVYQPGSMLSLAPTKGLLNEPGQNSCFLNSAVQVLWQLDIFRRSLRVLTGHVCQGDACIFCALKTIFAQFQHSREKALPSDNIRHALAESFKDEQRFQLGLMDDAAECFENMLERIHFHIVPSRDADMCTSKSCITHQKFAMTLYEQCVCRSCGASSDPLPFTEFVRYISTTALCNEVERMLERHERFKPEMFAELLQAANTTDDYRKCPSNCGQKIKIRRVLMNCPEIVTIGLVWDSEHSDLTEAVVRNLATHLYLPGLFYRVTDENAKNSELNLVGMICYTSQHYCAFAFHTKSSKWVFFDDANVKEIGTRWKDVVSKCIRCHFQPLLLFYANPDGTAVSTEDALRQVISWSHYKSVAENMGCEKPVIHKSDNLKENGFGDQAKQRENQKFPTDNISSSNRSHSHTGVGKGPAKLSHIDQREKIKDISRECALKAIEQKNLLSSQRKDLEKGQRKDLGRHRDLVDEDLSHFQSGSPPAPNGFKQHGNPHLYHSQGKGSYKHDRVVPQSRASAQIISSSKSQILAPGEKITGKVKSDNGTGYDTDSSQDSRDRGNSCDSSSKSRNRGWKPMRETLNVDSIFSESEKRQHSPRHKPNISNKPKSSKDPSFSNWPKENPKQKGLMTIYEDEMKQEIGSRSSLESNGKGAEKNKGLVEGKVHGDNWQMQRTESGYESSDHISNGSTNLDSPVIDGNGTVMDISGVKETVCFSDQITTSNLNKERGDCTSLQSQHHLEGFRKELRNLEAGYKSHEFHPESHLQIKNHLIKRSHVHEDNGKLFPSSSLQIPKDHNAREHIHQSDEQKLEKPNECKFSEWLNIENSERTGLPFHVDNSASGKRVNSNEPSSLWSSHLRTVGLKPETAPLIQQQNIMDQCYFENSLSTECIIRSASRSDGCQMPKLFCQNLPPPLPPKKYAITSVPQSEKSESTPDVKLTEVFKATSHLPKHSLSTASEPSLEVSTHMNDERHKETFQVRECFGNTPNCPSSSSTNDFQANSGAIDAFCQPELDSISTCPNETVSLTTYFSVDSCMTDTYRLKYHQRPKLSFPESSGFCNNSLS
Question: Which binding [2] does the source give for B1 here?
Answer: binds

B2: Flag-tagged USP53 (enzyme, UniProt Q70EK8 1-1073)
chain: B1 chain
Question: For B2, which binding (Myc-tagged SR-A) is on record?
Answer: binds
